Test results published in patent US10330678B2, “Methods and systems for modulating hormones and related methods, agents and compositions” (California Institute of Technology, priority 2010, dated 2019).
At least one compound was matched to its structure with a doubt left.

Tested on: NCI-H716 cells
Assay: GLP-1 release from endocrine cell line NCI-H716 (GLP-1 RIA kit)
Type: cell-based
Conditions: summary of Table 2, versus control

Row | Structure (SMILES) | effect on release of GLP-1 from NCI-H716 cells (in words)
1 | CCCC(=O)O [Butyrate, reference compound] | increase the release of GLP-1
2 | CCCCCCCCCCCC1=C(O)C(=O)C=C(O)C1=O [Embelin] | increase the release of GLP-1
